Drawing on publication PMC3171476, this text covers binding for one molecule.

No constants are given. Whether binding was seen depends on the method and setting. Binding seen in cells or lysates may run through a third protein. Some entries that bind do so weakly or less than the wild type. Sequences can lack the tags named with a protein.

Assay [1] deals with T1, Lsc1-HA (Lsc1p, cyclin subunit of the Ser-2 CTD kinase complex) (Schizosaccharomyces pombe) (UniProt O59748).
T1 sequence: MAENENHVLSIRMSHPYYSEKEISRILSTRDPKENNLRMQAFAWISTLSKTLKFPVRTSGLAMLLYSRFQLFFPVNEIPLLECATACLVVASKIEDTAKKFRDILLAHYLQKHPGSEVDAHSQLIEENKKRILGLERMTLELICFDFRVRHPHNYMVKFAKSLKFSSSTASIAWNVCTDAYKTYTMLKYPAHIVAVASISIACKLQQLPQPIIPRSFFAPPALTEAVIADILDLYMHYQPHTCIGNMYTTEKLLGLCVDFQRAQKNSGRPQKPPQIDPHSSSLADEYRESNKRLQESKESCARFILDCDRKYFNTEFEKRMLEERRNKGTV
In words: co-IP; anti-HA immunoprecipitation (Protein G Dynabeads) from 2 mg of native S. pombe cell extract (1% IGEPAL CA630, 150 mM NaCl, 50 mM Tris-HCl pH 8.0); immunoblot with anti-myc. (In general: Immunoblotting shows a protein as a band on a membrane.)

The target in assay [2] is T2, Lsk1-HA (Lsk1p, Ser-2 CTD kinase catalytic subunit) (Schizosaccharomyces pombe) (UniProt O14098).
T2 sequence: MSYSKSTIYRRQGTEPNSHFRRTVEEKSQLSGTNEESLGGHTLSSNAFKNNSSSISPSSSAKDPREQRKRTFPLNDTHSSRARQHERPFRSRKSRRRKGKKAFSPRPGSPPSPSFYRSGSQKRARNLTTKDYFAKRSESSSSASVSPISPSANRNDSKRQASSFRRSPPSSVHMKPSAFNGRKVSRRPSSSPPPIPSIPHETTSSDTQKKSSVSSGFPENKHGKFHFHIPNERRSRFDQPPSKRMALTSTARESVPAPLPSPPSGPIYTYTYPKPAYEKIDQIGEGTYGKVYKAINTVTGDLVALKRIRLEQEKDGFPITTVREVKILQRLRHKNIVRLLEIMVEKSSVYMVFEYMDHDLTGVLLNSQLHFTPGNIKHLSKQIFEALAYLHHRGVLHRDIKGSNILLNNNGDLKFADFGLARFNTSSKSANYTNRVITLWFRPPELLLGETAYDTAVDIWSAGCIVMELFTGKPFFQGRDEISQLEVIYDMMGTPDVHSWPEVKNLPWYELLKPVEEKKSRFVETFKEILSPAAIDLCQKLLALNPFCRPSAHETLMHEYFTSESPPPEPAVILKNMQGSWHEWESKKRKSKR
The description is as above.

B1: Lsg1-myc fusion protein (Lsg1p, latrunculin sensitive CTD kinase gamma subunit) (protein, UniProt Q9USJ8 1-218)
chain: MDPFEGRMTFLQLLGKLNASQFSQIKPAQFAIKHLDLEEDLYSCIWEELESGSFNTRVNIMYFVDTLCEMCLKNGLTGGYLNMISRDICKLVQNVAPIGAAGAANAPEVRKVLQSLHEKKVIDDNQYKDAMATVEAHEQASKSGDTSTSGAISKNDILKRIEEDRERHKRMRENIWAISEPELEAEIAWNTTQGITESDLESLKDEYEKFNECLHATS
As to B1, the binding entry in assay [1] and in assay [2] was “binds” in each case.
